Reference: PubChem BioAssay AID248 (DTP/NCI, 2004)
The list shows only some results of the screen, not a fair sample: it is rich in T/C values a quarter to a half above the control, in often repeated tests (any T/C) and in doses without a T/C. Further doses and runs are listed elsewhere. T/C gives the treated animals as a percentage of the vehicle group. Some entries give survivors of the animals treated and no T/C: the source holds a T/C of zero for them, seemingly a mark for toxic or unscored doses. Survivors were counted at the toxicity check, usually on the fifth day, unless a day is given; later deaths do not show. Schedules are NCI's codes, read here as Q, the interval in days (D) or hours (H), X, the number of doses. For survival time, the PubChem record calls one and a half times the control and up active, and a quarter to a half above the control has no call in these data; cut-offs in other NCI protocols can differ. Some T/C values are followed by the survivors on the day toxicity was checked, most often the fifth; without a count, all were alive then. Some doses were run more than once; the values are given in rising order. Signs of the kind (2×) say how often a value occurs here. Some schedules carry Z or #; the key to these is not given.

System: L1210 leukemia ip in BDF1 mice, survival T/C
Experiment: NCI In Vivo Anticancer Drug Screen. Data for tumor model L1210 Leukemia (intraperitoneal) in B6D2F1 (BDF1) mice
Details: higher T/C = longer survival

OCC1OC(n2cnc3c(=S)nc[nH]c32)C(O)C1O (stereo not drawn)
T/C (T/C endpoint: mean survival time, dose: 300.0 mg/kg/injection, schedule: Q01DX009 (ip), vehicle: water, evaluated on day 5): 149 % of control | T/C (T/C endpoint: mean survival time, dose: 300.0 mg/kg/injection, schedule: Q01DX009 (ip), vehicle: water, evaluated on day 6): 141 % of control | T/C (T/C endpoint: mean survival time, dose: 300.0 mg/kg/injection, schedule: Q01DX009 (ip), vehicle: water, evaluated on day 30): 141 and 150 % of control | T/C (T/C endpoint: mean survival time, dose: 300.0 mg/kg/injection, schedule: Q01DX Z (ip), vehicle: carboxymethylcellulose (CMC)): 147 % of control | T/C (T/C endpoint: mean survival time, dose: 300.0 mg/kg/injection, schedule: Q## X Z (ip), vehicle: carboxymethylcellulose (CMC)): 141 % of control [5 of 6 alive] | T/C (T/C endpoint: mean survival time, dose: 321.75 mg/kg/injection, schedule: Q01DX Z (ip), vehicle: carboxymethylcellulose (CMC)): 125 % of control | T/C (T/C endpoint: mean survival time, dose: 400.0 mg/kg/injection, schedule: Q01DX001 (ip), vehicle: alkali diluted with saline): 143 % of control | T/C (T/C endpoint: mean survival time, dose: 400.0 mg/kg/injection, schedule: Q01DX001 (ip), vehicle: carboxymethylcellulose (CMC)): 130 % of control | T/C (T/C endpoint: mean survival time, dose: 400.0 mg/kg/injection, schedule: Q01DX005 (ip), vehicle: saline): 112, 121, 125, 128, 131, 132, 135, 142 % of control | T/C (T/C endpoint: mean survival time, dose: 400.0 mg/kg/injection, schedule: Q01DX009 (ip), vehicle: carboxymethylcellulose (CMC)): 132 % of control | T/C (T/C endpoint: mean survival time, dose: 400.0 mg/kg/injection, schedule: Q01DX009 (ip), vehicle: saline): 130, 137, 138, 144 (2×), 147, 149 [4 of 6 alive], 151, 168 % of control | T/C (T/C endpoint: mean survival time, dose: 440.0 mg/kg/injection, schedule: Q01DX001 (ip), vehicle: carboxymethylcellulose (CMC)): 127 % of control | T/C (T/C endpoint: mean survival time, dose: 600.0 mg/kg/injection, schedule: Q01DX001 (ip), vehicle: carboxymethylcellulose (CMC)): 130 % of control | T/C (T/C endpoint: mean survival time, dose: 670.0 mg/kg/injection, schedule: Q01DX001 (ip), vehicle: carboxymethylcellulose (CMC)): 143 % of control | T/C (T/C endpoint: mean survival time, dose: 800.0 mg/kg/injection, schedule: Q01DX001 (ip), vehicle: saline): 129 % of control | T/C (T/C endpoint: mean survival time, dose: 800.0 mg/kg/injection, schedule: Q01DX005 (ip), vehicle: saline): 121, 127 (2×), 128, 130, 132, 134, 146 % of control | T/C (T/C endpoint: mean survival time, dose: 800.0 mg/kg/injection, schedule: Q01DX009 (ip), vehicle: saline): 100 [5 of 6 alive], 128, 135, 137 [5 of 6 alive], 140, 141, 147, 150 % of control | T/C (T/C endpoint: mean survival time, dose: 900.0 mg/kg/injection, schedule: Q01DX001 (ip), vehicle: alkali diluted with saline): 129 % of control | T/C (T/C endpoint: mean survival time, dose: 1000.0 mg/kg/injection, schedule: Q01DX001 (ip), vehicle: carboxymethylcellulose (CMC)): 140 % of control | T/C (T/C endpoint: mean survival time, dose: 1200.0 mg/kg/injection, schedule: Q01DX001 (ip), vehicle: saline): 130 % of control | T/C (T/C endpoint: mean survival time, dose: 1500.0 mg/kg/injection, schedule: Q01DX001 (ip), vehicle: carboxymethylcellulose (CMC)): 147 % of control | T/C (T/C endpoint: mean survival time, dose: 1600.0 mg/kg/injection, schedule: Q01DX001 (ip), vehicle: saline): 129 % of control | T/C (T/C endpoint: mean survival time, dose: 1600.0 mg/kg/injection, schedule: Q01DX005 (ip), vehicle: saline): 96 [4 of 6 alive], 112 [4 of 6 alive], 114, 118, 121 [5 of 6 alive], 134 [5 of 6 alive], 138, 143 % of control | survivor count (T/C endpoint: mean survival time, dose: 2250.0 mg/kg/injection, schedule: Q01DX001 (ip), vehicle: carboxymethylcellulose (CMC)): 6 of 10 | T/C (T/C endpoint: median survival time, dose: 50.0 mg/kg/injection, schedule: Q03HX024 (sc), vehicle: other): 133 % of control | T/C (T/C endpoint: median survival time, dose: 400.0 mg/kg/injection, schedule: Q01DX009 (ip), vehicle: other): 144 % of control | T/C (T/C endpoint: median survival time, dose: 400.0 mg/kg/injection, schedule: Q01DX009 (sc), vehicle: other): 144 % of control | T/C (T/C endpoint: median survival time, dose: 400.0 mg/kg/injection, schedule: Q03HX024 (sc), vehicle: other): 138 % of control | T/C (T/C endpoint: median survival time, dose: 800.0 mg/kg/injection, schedule: Q01DX009 (ip), vehicle: other): 144 % of control | T/C (T/C endpoint: median survival time, dose: 800.0 mg/kg/injection, schedule: Q01DX009 (sc), vehicle: other): 144 % of control | T/C (T/C endpoint: median survival time, dose: 1600.0 mg/kg/injection, schedule: Q01DX009 (ip), vehicle: other): 144 % of control | T/C (T/C endpoint: median survival time, dose: 1600.0 mg/kg/injection, schedule: Q01DX009 (sc), vehicle: other): 138 % of control | T/C (T/C endpoint: median survival time, dose: 1600.0 mg/kg/injection, schedule: Q04DX003 (ip), vehicle: other): 127 % of control | T/C (T/C endpoint: median survival time, dose: 1600.0 mg/kg/injection, schedule: Q04DX003 (sc), vehicle: other): 133 % of control | survivor count (T/C endpoint: median survival time, dose: 3200.0 mg/kg/injection, schedule: Q01DX001 (ip), vehicle: other): 3 of 8 | T/C (T/C endpoint: median survival time, dose: 3200.0 mg/kg/injection, schedule: Q01DX001 (sc), vehicle: other): 133 % of control | survivor count (T/C endpoint: median survival time, dose: 3200.0 mg/kg/injection, schedule: Q01DX009 (ip), vehicle: other): 1 of 8 | survivor count (T/C endpoint: median survival time, dose: 3200.0 mg/kg/injection, schedule: Q04DX003 (ip), vehicle: other): 3 of 8
